Source: CN114106176A
Results are given in words; binding and its absence hold for the method and conditions named. Some binding calls cover weakened binding; strength is not graded here.

Sequences of proteins named here, by UniProt entry; tags and fusion partners are left off. A change or cut given only in a name is not applied to a line headed by its entry. Residues count along the entry.
UniProt P20273: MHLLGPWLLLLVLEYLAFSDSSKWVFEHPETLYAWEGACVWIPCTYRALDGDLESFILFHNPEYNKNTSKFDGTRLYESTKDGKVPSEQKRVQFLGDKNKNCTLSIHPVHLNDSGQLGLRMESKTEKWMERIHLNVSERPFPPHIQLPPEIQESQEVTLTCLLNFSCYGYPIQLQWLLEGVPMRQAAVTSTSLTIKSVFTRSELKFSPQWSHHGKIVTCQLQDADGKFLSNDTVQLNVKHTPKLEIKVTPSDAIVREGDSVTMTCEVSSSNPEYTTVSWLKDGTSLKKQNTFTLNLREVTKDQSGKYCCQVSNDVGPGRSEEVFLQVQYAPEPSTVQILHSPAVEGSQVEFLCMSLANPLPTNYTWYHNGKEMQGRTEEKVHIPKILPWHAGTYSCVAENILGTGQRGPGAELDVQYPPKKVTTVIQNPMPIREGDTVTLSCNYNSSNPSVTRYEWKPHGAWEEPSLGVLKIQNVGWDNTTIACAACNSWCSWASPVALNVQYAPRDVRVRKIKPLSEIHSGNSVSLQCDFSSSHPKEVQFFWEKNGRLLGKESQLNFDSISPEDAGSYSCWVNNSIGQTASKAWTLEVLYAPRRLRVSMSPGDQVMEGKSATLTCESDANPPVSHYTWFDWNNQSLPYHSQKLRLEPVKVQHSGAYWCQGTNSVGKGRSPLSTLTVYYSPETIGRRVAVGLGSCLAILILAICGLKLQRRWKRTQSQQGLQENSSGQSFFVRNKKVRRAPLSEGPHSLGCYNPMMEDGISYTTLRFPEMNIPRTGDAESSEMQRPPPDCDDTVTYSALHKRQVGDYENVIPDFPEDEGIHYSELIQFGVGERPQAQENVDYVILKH
CD22 on K562-CD22 cells: residues 20-847 of P20273
人CD22胞外段缀合His标签 (hCD22-His, ACRO, CD2-H52H8): residues 20-687 of P20273

Tests used:
[1] = target: 人CD22胞外段缀合His标签 (hCD22-His, ACRO, CD2-H52H8) (human) (UniProt P20273); test: ELISA, hCD22-His coated at 2 ug/ml, 3-fold antibody dilutions
CD22 on K562-CD22 cells = CD22 on K562-CD22 cells (UniProt P20273); test: flow cytometry on K562-CD22 cells, antibody from 10 ug/mL, 3-fold, 9 points, PE anti-mouse IgG

Binder	binding [1]	binding (CD22 on K562-CD22 cells)
FC2-045 (antibody, mouse IgG2a, kappa, V domains shown) VH: QVQLQQSGAELVRPGASVTLSCKASGYTFTDYEMHWVKQTLVHGLEWIGAIDPETGATAYNQKFKGKATLTADKSSSTAYMELRSLTSEDSAVYYCTRSNWDGWFAYWGQGTLVTVSA VL: DIQMTQSSSSFSVSLGDRVTITCKASEDIYNRLAWYQQKPGSAPRLLISGATSLETGVPSRFSGSGSGKDYTLNITSLQTEDVATYYCQQYWSSWTFGGGTKLEIKR	binds	binds
5CD22-111-1-C3 (antibody, mouse IgG1, kappa, V domains shown) VH: EVKLEESGGGLVQPGGFMKLSCVASGFTFSNYWMNWVRQSPERGLEWVAEIRLKSNDYATHYAESVKGRFTISRDDSKSNVYLQMNNLRAEDTGIYYCTRVYYYGRDYAMDYWGQGTSVTVSS VL: QIVLTQSPAIMSASLGERVTMTCTASSSVSSIYLHWYQQKPGSSPKLWIYSTSNLASGVPGRFSGSGSGTSYSLTISSMEAEDAATYYCHQYHRSPRTFGGGTKLEIKR	–	binds
